Consider one substance from article PMC6901240.

Protein sequences, listed by entry. Tags and fused reporters are not part of them.
UniProt Q7S2I4: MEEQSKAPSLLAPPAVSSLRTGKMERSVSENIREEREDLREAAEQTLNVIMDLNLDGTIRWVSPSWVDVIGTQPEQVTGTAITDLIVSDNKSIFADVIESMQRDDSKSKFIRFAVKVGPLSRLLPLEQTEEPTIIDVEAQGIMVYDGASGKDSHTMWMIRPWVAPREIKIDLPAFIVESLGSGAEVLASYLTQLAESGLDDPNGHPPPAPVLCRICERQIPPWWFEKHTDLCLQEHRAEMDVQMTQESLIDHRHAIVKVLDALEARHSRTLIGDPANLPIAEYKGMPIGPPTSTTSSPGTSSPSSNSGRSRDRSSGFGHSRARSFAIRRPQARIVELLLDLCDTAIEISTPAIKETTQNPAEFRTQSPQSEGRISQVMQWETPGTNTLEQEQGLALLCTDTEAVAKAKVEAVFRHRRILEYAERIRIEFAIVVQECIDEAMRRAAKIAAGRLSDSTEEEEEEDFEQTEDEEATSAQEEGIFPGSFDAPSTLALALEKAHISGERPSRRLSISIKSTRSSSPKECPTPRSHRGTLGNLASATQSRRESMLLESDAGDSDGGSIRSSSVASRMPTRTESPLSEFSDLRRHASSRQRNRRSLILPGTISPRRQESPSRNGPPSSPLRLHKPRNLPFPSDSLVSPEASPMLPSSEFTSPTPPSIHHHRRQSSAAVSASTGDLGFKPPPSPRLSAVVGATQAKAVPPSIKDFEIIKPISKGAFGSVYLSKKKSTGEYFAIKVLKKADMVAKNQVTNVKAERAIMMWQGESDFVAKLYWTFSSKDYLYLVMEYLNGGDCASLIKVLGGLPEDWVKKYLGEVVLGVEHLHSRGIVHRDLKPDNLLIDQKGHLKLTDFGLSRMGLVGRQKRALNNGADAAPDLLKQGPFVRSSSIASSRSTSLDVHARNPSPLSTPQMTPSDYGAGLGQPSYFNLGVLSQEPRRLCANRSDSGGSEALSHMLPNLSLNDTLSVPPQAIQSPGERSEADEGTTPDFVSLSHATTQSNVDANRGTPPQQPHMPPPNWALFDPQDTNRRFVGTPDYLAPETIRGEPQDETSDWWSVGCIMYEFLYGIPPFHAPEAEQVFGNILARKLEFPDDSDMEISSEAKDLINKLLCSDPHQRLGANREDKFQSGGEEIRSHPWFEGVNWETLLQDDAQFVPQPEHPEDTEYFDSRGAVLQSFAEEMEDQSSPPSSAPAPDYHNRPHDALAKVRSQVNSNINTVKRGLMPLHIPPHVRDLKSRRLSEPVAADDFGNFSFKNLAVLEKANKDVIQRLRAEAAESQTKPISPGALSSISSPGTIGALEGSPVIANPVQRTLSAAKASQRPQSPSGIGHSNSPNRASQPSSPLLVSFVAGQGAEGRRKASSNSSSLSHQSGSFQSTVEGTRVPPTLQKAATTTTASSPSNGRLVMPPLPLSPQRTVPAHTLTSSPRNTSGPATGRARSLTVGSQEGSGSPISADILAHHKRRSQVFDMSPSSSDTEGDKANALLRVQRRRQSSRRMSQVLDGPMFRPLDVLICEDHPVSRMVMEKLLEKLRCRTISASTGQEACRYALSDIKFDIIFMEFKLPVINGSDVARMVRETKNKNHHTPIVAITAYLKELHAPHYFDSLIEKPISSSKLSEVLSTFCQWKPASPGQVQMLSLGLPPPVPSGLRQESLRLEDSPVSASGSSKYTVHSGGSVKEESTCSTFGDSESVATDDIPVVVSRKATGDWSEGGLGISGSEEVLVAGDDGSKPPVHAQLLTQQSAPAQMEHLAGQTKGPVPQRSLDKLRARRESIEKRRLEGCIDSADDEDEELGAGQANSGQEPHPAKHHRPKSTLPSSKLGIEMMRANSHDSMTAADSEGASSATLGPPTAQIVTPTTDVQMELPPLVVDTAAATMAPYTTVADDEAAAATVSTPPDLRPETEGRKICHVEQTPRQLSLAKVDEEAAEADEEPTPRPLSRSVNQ

Results are given in words; binding and its absence hold for the method and conditions named. Binding seen in cells or lysates may run through a third protein. A result given as binding can be weak or reduced; the word gives no strength.

In this test the target is STK-12 (N. crassa (endogenous in N. crassa mycelia)) (UniProt Q7S2I4). The experiment in a line: co-IP; total protein of strain Pc-NcIGO-1 grown 2 days in 2% Avicel VMM; anti-STK-12 antiserum 4 h at 4°C, protein A or G magnetic beads; blots with anti-STK-12 and anti-GFP; preimmune serum as control.

With IGO-1-GFP (from UniProt Q7RW74), the binding result is on record as “binds”.
